Measurements as given in US20170216452A1 (Pfizer Inc., priority 2015, published 2017).

Test: general procedure: solution-phase peptide synthesis; HATU

Substance | step yield (late stage modification step) [%] | step yield (coupling step) [%]
2-methylalanyl-N-[(3R,4S,5S)-3-methoxy-1-{(2S)-2-[(1R,2R)-1-methoxy-2-methyl-3-oxo-3-{[(1 S)-2-phenyl-1-(1,3-thiazol-2-yl)ethyl]amino}propyl]pyrrolidin-1-yl}-5-methyl-1-oxoheptan-4-yl]-N-methyl-L-valinamide | 75 | 
N-[(9H-fluoren-9-ylmethoxy)carbonyl]-2-methylalanyl-N-[(3R,4S,5S)-3-methoxy-1-{(2S)-2-[(1R,2R)-1-methoxy-2-methyl-3-oxo-3-{[(1 S)-2-phenyl-1-(1,3-thiazol-2-yl)ethyl]amino}propyl]pyrrolidin-1-yl}-5-methyl-1-oxoheptan-4-yl]-N-methyl-L-valinamide |  | 74
